# PubChem BioAssay AID493014 (National Center for Advancing Translational Sciences (NCATS), 2011)
# The other results are listed elsewhere or left out. Shown are side measurements of this screen, not its main read-out; they come without a call. Compounds called inactive in the main read-out are mostly missing here. Potencies come from curve fits of mixed quality, noted in brackets.
# Test: qHTS Assay to Find Inhibitors of Chronic Active B-Cell Receptor Signaling
# Conditions: ABC-DLBCL IkBa-CBG/CBR reporter, luminescence ratio (green luciferase fused to IkBa over red control in TMD8 lymphoma cells), 4 h
# Procedure, shortened: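 Cell line TMD8 (human ABC DLBCL), stably expressing tet-inducible CBG68-IkBa fusion and CBR; IMDM/0.5% FBS; cpd up to 46 uM; dox induction, 4 h, 37C/5% CO2; dual luminescence; green/red ratio; MG132 control.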
# [1] = measured here: CBR red luminescence, cell number
# [2] = measured here: IkBa-CBG green luminescence
smiles,measurement,setting,value
COc1ccc(/C=N/NC(=O)c2cc(-c3ccccc3OC)nc3ccccc23)cc1COC(C)=O,AC50,[1],"14.1 µM [falling, single point]"
Cc1ccc(S(=O)(=O)NC(C)C(c2cccs2)N2CCN(c3ccccc3)CC2)cc1 (centres undefined),AC50,[1],"0.116 µM [rising, full curve, poor fit]"
O=C(NCc1ccccc1)C1CCC(CNc2c(N3CCCCC3)c(=O)c2=O)CC1 (centres undefined),AC50,[1],"5.17 µM [rising, full curve]"
COc1ccc(C(CC(=O)N2CCOCC2)c2c(O)cc(OC)cc2OC)cc1 (centres undefined),AC50,[1],"11.2 µM [rising, partial curve]"
Cc1ccccc1NC(=S)C1=C(O)c2sccc2N(C)S1(=O)=O,AC50,[1],"0.164 µM [falling, full curve, poor fit]"
CCN(CC)C(=O)CSc1nc2ccccc2c(=O)[nH]1,AC50,[1],"29.1 µM [falling, single point]"
O=C(Nc1ccc2nc(-c3ccccc3)[nH]c2c1)c1ccco1,AC50,[1],"25.9 µM [falling, single point]"
O=C(Cc1ccc(Cl)cc1)Nc1ccc(Cl)cn1,AC50,[1],"0.251 µM [rising, full curve, poor fit]"
CCOC(=O)c1[nH]c(C)c(C(=O)NC2CCCCCC2)c1C,AC50,[1],"0.259 µM [rising, full curve, poor fit]"
S=c1[nH]nc(COc2ccccc2)n1/N=C/c1c(Cl)cccc1Cl,AC50,[1],"7.08 µM [rising, full curve, poor fit]"
Cc1ccc(N2CC(C(=O)NCc3n[nH]c(=O)c4ccccc34)CC2=O)cc1C (centres undefined),AC50,[1],"16.4 µM [falling, partial curve]"
CC(=O)C1=C(C)N(Cc2ccccc2)C(=O)N[C@H]1c1cccc(C(F)(F)F)c1,AC50,[1],"16.4 µM [falling, partial curve, poor fit]"
O=C(c1cc2cc(Cl)ccc2[nH]1)N1CCN(Cc2ccc3c(c2)OCO3)CC1,AC50,[1],"11.2 µM [falling, partial curve]"
CCCOc1ccc(CSc2ncn[nH]2)cc1,AC50,[1],"4.11 µM [falling, partial curve, poor fit]"
O=C(CNC(=O)c1cccs1)c1ccc(F)cc1,AC50,[1],"14.6 µM [falling, partial curve]"
Cc1ccnc(NC(=O)CSc2cc(=O)n(C)c3ccccc23)c1,AC50,[1],"3.16 µM [falling, partial curve]"
Cc1ccc(CNc2oc(C)nc2C#N)cc1,AC50,[1],"6.31 µM [rising, partial curve, poor fit]"
CN1CCC(=NNc2ccc(S(=O)(=O)N3CCOCC3)cc2[N+](=O)[O-])CC1,AC50,[1],"7.31 µM [falling, partial curve]"
O=C1CCCN1CCCNc1nc2c(S(=O)(=O)c3ccccc3)nnn2c2ccc(Cl)cc12,AC50,[1],"2.82 µM [falling, partial curve, poor fit]"
Cc1ccc(-n2c(N)c(-c3nc4ccccc4n3C)sc2=S)cc1,AC50,[1],"20.6 µM [falling, single point]"
CC(C(=O)N1CCCCC1)n1sc2ccccc2c1=O (centres undefined),AC50,[1],"5.8 µM [rising, partial curve, poor fit]"
CC(C)c1ccc(OCCCCCN2CCOCC2)cc1,AC50,[1],"0.1 µM [rising, full curve, poor fit]"
COC(=O)c1cc(NC(=O)C(C)c2ccc(CC(C)C)cc2)ccc1O (centres undefined),AC50,[1],"11.2 µM [falling, partial curve]"
Cc1ccsc1C(=O)OCC(=O)c1ccc[nH]1,AC50,[1],"20.6 µM [falling, partial curve, poor fit]"
COc1ccc(-c2cc3ccc(OCc4nn[nH]n4)cc3oc2=O)cc1,AC50,[1],"29.1 µM [rising, partial curve, poor fit]"
Cc1cc(NC(=O)CS(=O)(=O)c2cn(Cc3cccc(F)c3)c3ccccc23)no1,AC50,[1],"29.1 µM [falling, single point]"
CCSC1=C(C#N)C2(CCCCC2)C2=C(CC(C)(C)CC2=O)N1,AC50,[1],"5.01 µM [rising, partial curve]"
Cc1cc(-c2nnc3n2N=C(c2ccccc2)CS3)n[nH]1,AC50,[1],"20 µM [falling, partial curve, poor fit]"
N#Cc1ccccc1S(=O)(=O)N1CCN(C(=O)c2cn(-c3ccccc3)nc2-c2cccnc2)CC1,AC50,[1],"7.31 µM [rising, partial curve, poor fit]"
Brc1cccc(-c2cnco2)c1,AC50,[1],"3.55 µM [rising, partial curve, poor fit]"
CC1C=CCC2C(=O)N(c3cc(Cl)ccc3O)C(=O)C12 (centres undefined),AC50,[1],"12.6 µM [rising, partial curve, poor fit]"
Nc1sc(-c2ccccc2)cc1C(=O)N/N=C/c1ccc(Cl)cc1,AC50,[1],"8.91 µM [rising, partial curve]"
COc1ccc(NC(=O)N(C)C[C@H]2Oc3ccc(NC(=O)NC(C)C)cc3C(=O)N([C@H](C)CO)C[C@@H]2C)cc1,AC50,[1],"29.1 µM [rising, single point]"
Cc1cc(C)c2cc(CN(Cc3nnnn3Cc3ccc(F)cc3)C3CCCC3)c(=O)[nH]c2c1,AC50,[1],"0.501 µM [falling, full curve, poor fit]"
Cc1cccc(N(C(=O)c2snc(C(N)=O)c2N)C(C(=O)NCC2CCCO2)c2c[nH]c3ccccc23)c1 (centres undefined),AC50,[1],"3.16 µM [falling, partial curve, poor fit]"
Cc1ccc(OCCSc2ncnc3nc[nH]c23)cc1,AC50,[1],"6.51 µM [rising, full curve, poor fit]"
C=CCn1c(C)cc(C(=O)CN2NS(=O)(=O)c3ccccc3C2=O)c1C,AC50,[1],"17.8 µM [rising, single point]"
same,AC50,[2],"25.1 µM [falling, single point]"
COc1cccc(-c2nnc(NC(=O)C(C)C)o2)c1,AC50,[1],"29.1 µM [falling, single point]"
Cc1ccc(OCC(=O)Nn2c(C)nc3ccccc3c2=O)c(C(C)C)c1,AC50,[1],"11.2 µM [falling, partial curve, poor fit]"
O=C(CSc1nncs1)Nc1nnc(-c2ccccc2)o1,AC50,[1],"20 µM [falling, partial curve, poor fit]"
CCN(CC)S(=O)(=O)c1ccc(N2CCN(S(=O)(=O)c3ccc4c(c3)OCCO4)CC2)nc1,AC50,[1],"1.84 µM [falling, partial curve, poor fit]"
Cc1ccc(C(=O)C(C)OC(=O)c2cc3cc([N+](=O)[O-])ccc3oc2=O)cc1 (centres undefined),AC50,[1],"6.51 µM [rising, single point]"
C[C@@H]1CN(C(=O)c2nc3ccc(Cl)cn3c2CN2CCc3sccc3C2)C[C@H](C)O1,AC50,[1],"0.1 µM [rising, full curve, poor fit]"
CCCS(=O)(=O)c1c(S(=O)(=O)CCC)c2c(N)cccn2c1C(=O)c1ccc(OC)cc1,AC50,[1],"17.8 µM [falling, single point]"
CC[C@@H]1Cc2cc(O)ccc2C2=C1c1ccc(O)cc1C[C@H]2CC,AC50,[1],"3.66 µM [rising, partial curve, poor fit]"
same,AC50,[2],"3.66 µM [falling, partial curve, poor fit]"
Clc1ccc(Nc2ccc(Cl)nn2)cc1,AC50,[1],"35.5 µM [rising, single point]"
CCn1c(=O)c(C(=O)Nc2ccccc2)c(O)c2ccccc21,AC50,[1],"0.398 µM [falling, full curve, poor fit]"
COc1cc(OC)cc(C(=O)O/N=C(\N)c2ccccn2)c1,AC50,[1],"15.8 µM [falling, partial curve]"
COc1cc(C#Cc2c(-c3cncn3C)n(C)c3ccc(-c4ccc(CN5CCOCC5)cc4)cc23)cc(OC)c1,AC50,[1],"0.731 µM [rising, full curve, poor fit]"
CSc1ccccc1NC(=O)CSc1n[nH]c(C)c1[N+](=O)[O-],AC50,[1],"12.6 µM [falling, partial curve]"
Cn1c(/C=C/N(Cc2ccccc2)c2ccccc2)c([N+](=O)[O-])c(=O)n(C)c1=O,AC50,[1],"20 µM [rising, single point]"
COc1ccccc1NC(=O)CN1CCN(Cc2ccccc2)CC1,AC50,[1],"6.51 µM [rising, partial curve, poor fit]"
COc1ccc(OC)c(CN2CCN(C(=O)CNC(=O)c3ccc(C(C)(C)C)cc3)CC2)c1,AC50,[1],"6.51 µM [falling, partial curve, poor fit]"
COCCn1c(SCC(=O)N2CCCCC2)nc2ccccc2c1=O,AC50,[1],"3.16 µM [falling, partial curve, poor fit]"
O=C(Nc1ccccc1C(=O)N/N=C/c1ccco1)c1ccc(F)cc1,AC50,[1],"18.4 µM [falling, partial curve]"
O=C1NC(=S)/C(=C\c2ccc(-c3ccccc3Cl)o2)S1,AC50,[1],"0.164 µM [rising, full curve, poor fit]"
COc1ccccc1CNc1ncnc2c1cnn2-c1ccc(C)cc1,AC50,[1],"10 µM [falling, partial curve, poor fit]"
CCCn1c(-c2cccc([N+](=O)[O-])c2)nc2c1c(=O)[nH]c(=O)n2Cc1ccccc1,AC50,[1],"10.3 µM [rising, partial curve, poor fit]"
CCCC1CC(CSC(=N)N)OC1=O (centres undefined),AC50,[1],"18.4 µM [falling, single point]"
O=C(CCc1nnc2ccc(N3CCCC3)nn12)Nc1ccc(F)cc1F,AC50,[1],"6.31 µM [falling, single point]"
Cc1ccc(C)c(C2=NNC(=NCc3ccccc3)SC2)c1,AC50,[1],"2.51 µM [falling, partial curve, poor fit]"
CCOc1ccccc1CN1CCNC(=O)C1CC(=O)NCCC1=CCCCC1 (centres undefined),AC50,[1],"25.1 µM [falling, single point]"

# Three entries drawn at random from those above, as already listed:
smiles,measurement,setting,value
CC[C@@H]1Cc2cc(O)ccc2C2=C1c1ccc(O)cc1C[C@H]2CC,AC50,[2],"3.66 µM [falling, partial curve, poor fit]"
Cc1ccsc1C(=O)OCC(=O)c1ccc[nH]1,AC50,[1],"20.6 µM [falling, partial curve, poor fit]"
Cc1ccc(-n2c(N)c(-c3nc4ccccc4n3C)sc2=S)cc1,AC50,[1],"20.6 µM [falling, single point]"
